According to patent US7438916B2, “Therapeutic target for protozoal diseases” (priority 2005, dated 2008):
Some of these results come from one statement about several compounds together.

System: P. falciparum sporozoites
Assay: Sporozoite invasion assay
Format: cell-based, P. falciparum (strain NF54)
Conditions: concentration not given
Description: Sporozoite Invasion Assay: Invasion assay was performed with HepG2 (Human hepatoma) cells as previously described (31). Briefly, HepG2 cells were plated (50,000 cells/0.3 ml) and incubated overnight at 37° C. in a CO2 incubator. Next day, medium was removed and 50 μl of diluted FRAP proteins (final concentrations: 20 and 10 μg/ml) or anti-FRAP2 antibodies (40 μg/ml final concentration) were added per well. Anti CS monoclonal antibody NFS1 was used at a final concentration of 100 μg/ml. All protein concentrations and serum dilutions were evaluated in triplicate. This was immediately followed by the addition of 20,000 sporozoites in 50 μl of medium to each well. P. falciparum (strain NF54) sporozoites were obtained from the salivary glands of An. stephensi mosquitoes as described by Ozaki (33). The sporozoites were allowed to invade liver cells for three hours followed by the washing of cells with PBS at pH 7.4. Subsequently, the cells were fixed with cold methanol. Sporozoites were visualized by immunostaining using NFS1 as primary antibody and anti-mouse IgG-peroxidase conjugate. The slides were mounted with Paramount and only intracellular sporozoites were counted as described (31). Percentage inhibition of invasion was calculated with the following formula: [(Control-test)/control]×100 Results

B1: FRAP2: truncated FRAP containing only amino acids 1-87, SEQ ID NO: 25 (protein, listed as Plasmodium falciparum)
chain: MKNRFYYNLIIKRLYTRSGGLRKPQKVTNDPESINRKVYWCFEHKPVKRTIINLIYSHNELKIFSNLLNHPTVGSSLIHELSLDGPY
inhibition of invasion of liver cells by P. falciparum sporozoites: ≤ 94.6%
